Measurements from publication PMC5524797.
Results are given in words; binding and its absence hold for the method and conditions named. Binding seen in cells or lysates may run through a third protein. Here binding means that the protein was enriched with, or labelled near, the bait; the list need not be complete.

The chains behind the UniProt entries cited, without tags or fusion partners.
UniProt Q70KF4: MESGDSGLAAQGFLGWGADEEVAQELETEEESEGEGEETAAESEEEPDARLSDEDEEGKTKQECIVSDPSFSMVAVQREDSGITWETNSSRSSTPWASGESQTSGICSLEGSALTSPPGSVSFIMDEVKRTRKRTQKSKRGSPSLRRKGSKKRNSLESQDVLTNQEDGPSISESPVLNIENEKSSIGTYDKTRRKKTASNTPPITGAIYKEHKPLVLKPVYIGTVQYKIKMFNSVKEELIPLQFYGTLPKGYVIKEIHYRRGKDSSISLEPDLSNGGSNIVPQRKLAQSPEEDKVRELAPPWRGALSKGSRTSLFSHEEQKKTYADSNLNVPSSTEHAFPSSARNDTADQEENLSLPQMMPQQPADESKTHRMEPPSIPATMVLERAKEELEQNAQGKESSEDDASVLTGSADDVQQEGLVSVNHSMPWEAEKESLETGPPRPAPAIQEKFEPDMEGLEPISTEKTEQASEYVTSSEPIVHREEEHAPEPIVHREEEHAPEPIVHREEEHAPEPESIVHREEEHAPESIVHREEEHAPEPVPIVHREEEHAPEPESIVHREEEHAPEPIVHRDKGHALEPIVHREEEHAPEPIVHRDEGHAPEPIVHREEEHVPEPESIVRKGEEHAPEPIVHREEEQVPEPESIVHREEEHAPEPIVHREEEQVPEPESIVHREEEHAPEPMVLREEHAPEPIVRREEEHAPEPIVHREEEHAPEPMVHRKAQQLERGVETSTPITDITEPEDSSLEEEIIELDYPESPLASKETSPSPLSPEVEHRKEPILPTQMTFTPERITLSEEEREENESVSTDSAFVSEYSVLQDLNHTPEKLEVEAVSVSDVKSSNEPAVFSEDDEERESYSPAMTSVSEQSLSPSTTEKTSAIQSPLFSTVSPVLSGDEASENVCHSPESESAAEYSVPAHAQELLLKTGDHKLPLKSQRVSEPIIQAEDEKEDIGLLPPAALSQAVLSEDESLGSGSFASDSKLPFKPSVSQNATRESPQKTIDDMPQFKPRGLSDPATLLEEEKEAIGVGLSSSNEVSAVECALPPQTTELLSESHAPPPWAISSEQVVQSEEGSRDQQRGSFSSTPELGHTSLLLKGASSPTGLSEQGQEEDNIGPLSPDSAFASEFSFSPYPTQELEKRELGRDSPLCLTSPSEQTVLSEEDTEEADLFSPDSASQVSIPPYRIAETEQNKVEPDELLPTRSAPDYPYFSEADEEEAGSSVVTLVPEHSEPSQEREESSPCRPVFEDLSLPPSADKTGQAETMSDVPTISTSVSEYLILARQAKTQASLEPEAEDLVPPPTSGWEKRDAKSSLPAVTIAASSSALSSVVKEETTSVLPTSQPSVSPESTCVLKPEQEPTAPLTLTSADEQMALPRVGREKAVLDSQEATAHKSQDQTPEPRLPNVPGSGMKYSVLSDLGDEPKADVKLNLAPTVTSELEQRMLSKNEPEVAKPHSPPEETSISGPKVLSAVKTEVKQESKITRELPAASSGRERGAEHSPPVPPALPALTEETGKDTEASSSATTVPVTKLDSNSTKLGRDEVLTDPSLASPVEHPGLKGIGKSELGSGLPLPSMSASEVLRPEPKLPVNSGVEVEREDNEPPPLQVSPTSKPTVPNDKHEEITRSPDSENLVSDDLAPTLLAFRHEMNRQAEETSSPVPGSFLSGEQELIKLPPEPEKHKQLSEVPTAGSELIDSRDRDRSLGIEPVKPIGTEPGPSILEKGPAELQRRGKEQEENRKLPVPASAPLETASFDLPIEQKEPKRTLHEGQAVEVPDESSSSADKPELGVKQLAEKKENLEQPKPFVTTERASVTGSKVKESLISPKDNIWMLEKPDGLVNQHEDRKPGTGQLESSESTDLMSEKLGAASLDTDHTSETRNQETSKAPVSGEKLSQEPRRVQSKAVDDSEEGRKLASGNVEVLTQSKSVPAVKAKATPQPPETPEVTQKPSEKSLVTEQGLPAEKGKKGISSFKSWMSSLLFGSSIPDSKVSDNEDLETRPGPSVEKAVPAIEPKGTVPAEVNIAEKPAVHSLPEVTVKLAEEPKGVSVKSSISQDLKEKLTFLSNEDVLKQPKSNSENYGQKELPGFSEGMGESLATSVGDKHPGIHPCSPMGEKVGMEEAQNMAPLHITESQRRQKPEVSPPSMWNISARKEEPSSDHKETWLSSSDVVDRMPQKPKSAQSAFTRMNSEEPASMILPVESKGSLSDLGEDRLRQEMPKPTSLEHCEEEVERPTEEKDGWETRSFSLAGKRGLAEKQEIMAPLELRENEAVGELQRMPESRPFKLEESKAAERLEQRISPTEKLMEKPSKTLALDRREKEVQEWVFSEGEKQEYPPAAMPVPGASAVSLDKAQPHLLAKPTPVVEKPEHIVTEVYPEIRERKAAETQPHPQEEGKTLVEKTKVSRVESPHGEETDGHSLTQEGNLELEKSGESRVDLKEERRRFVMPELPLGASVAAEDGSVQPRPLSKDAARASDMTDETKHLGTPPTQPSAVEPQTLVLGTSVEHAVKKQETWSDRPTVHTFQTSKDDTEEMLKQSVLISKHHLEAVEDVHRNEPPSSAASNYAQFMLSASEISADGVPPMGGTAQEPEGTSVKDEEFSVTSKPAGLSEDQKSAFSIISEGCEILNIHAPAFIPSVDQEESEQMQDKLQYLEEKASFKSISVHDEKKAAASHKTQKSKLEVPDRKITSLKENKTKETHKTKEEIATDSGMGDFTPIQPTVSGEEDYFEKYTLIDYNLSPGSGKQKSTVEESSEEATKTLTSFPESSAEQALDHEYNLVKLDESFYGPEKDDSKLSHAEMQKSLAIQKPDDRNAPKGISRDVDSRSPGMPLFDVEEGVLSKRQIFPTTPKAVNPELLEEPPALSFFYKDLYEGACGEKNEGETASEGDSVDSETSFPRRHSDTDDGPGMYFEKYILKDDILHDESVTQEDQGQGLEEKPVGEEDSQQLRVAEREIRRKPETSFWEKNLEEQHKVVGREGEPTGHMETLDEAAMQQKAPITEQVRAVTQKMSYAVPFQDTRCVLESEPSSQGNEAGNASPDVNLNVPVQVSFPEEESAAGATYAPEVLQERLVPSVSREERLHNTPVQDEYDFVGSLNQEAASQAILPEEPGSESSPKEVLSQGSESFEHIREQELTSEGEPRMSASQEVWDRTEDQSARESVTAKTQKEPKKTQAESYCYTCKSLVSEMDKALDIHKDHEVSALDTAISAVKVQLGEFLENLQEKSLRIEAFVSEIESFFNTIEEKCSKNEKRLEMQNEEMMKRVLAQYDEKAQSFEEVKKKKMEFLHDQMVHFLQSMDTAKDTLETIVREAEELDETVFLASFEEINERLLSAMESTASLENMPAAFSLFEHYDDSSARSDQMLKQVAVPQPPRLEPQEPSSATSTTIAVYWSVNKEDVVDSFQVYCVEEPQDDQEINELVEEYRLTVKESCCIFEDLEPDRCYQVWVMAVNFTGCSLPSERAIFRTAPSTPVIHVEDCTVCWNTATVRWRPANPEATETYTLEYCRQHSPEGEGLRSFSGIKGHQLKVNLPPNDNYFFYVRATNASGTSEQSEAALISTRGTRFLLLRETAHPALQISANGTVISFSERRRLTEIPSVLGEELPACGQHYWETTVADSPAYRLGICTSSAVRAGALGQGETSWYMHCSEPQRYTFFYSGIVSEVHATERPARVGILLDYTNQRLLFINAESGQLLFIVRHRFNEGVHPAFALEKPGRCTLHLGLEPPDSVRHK

T1: minispryn (mouse (endogenous in heart)) (UniProt Q8BZ52)
T1 sequence: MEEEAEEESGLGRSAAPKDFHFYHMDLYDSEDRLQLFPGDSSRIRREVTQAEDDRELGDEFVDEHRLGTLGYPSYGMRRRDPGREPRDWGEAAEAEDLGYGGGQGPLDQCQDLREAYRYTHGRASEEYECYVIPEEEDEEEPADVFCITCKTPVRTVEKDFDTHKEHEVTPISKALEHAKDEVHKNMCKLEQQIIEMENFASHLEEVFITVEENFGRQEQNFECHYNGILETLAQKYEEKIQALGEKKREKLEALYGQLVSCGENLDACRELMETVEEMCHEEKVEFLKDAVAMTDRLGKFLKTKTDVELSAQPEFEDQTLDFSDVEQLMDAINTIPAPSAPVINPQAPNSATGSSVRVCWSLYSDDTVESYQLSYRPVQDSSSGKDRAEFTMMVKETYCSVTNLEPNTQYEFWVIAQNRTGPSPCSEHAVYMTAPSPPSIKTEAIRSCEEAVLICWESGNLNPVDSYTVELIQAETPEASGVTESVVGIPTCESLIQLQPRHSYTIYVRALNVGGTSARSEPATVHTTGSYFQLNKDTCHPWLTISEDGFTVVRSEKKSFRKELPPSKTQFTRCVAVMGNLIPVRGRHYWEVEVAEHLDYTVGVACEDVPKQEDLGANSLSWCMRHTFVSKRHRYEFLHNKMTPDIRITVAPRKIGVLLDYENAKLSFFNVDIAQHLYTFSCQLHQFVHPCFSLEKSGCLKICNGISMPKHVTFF

B1: minispryn (protein, UniProt Q8BZ52 1-716)
chain: T1 sequence

Columns and labels:
[1] = biological target: T1, minispryn (mouse (endogenous in heart)); assay: affinity purification with mass spectrometry; anti-minispryn antibody 819 cross-linked to protein A/G-agarose; mouse heart RIPA extract, overnight at 4 °C; washed in RIPA with 0.5 M NaCl; bands not shared with the protein G control excised and analysed by mass spectrometry
[2] = biological target: cardiac ryanodine receptor (RyR2) (mouse (endogenous in heart)) (UniProt E9Q401); assay: affinity purification with mass spectrometry; pan-RyR antibody 34C cross-linked to protein A/G-agarose; RyRs immunoaffinity-purified from heart; read-out told only as 'a combination of mass spectrometry and western blotting'
[3] = biological target: myospryn (mouse (endogenous in heart)) (UniProt Q70KF4); assay: affinity purification with mass spectrometry; anti-myospryn antibody des122 conjugated to agarose beads; mouse heart RIPA extract, overnight at 4 °C; washed in RIPA with 0.5 M NaCl; bands excised and analysed by mass spectrometry

Molecule	binding [1]	binding [2]	binding [3]
myospryn (from UniProt Q70KF4 1-3739)	binds	binds	–
B1	–	binds	binds
